Drawing on publication PMC12591392, this text covers binding for 1 substance.

Protein sequences, listed by entry. Tags and fused reporters are not part of them.
UniProt Q15561: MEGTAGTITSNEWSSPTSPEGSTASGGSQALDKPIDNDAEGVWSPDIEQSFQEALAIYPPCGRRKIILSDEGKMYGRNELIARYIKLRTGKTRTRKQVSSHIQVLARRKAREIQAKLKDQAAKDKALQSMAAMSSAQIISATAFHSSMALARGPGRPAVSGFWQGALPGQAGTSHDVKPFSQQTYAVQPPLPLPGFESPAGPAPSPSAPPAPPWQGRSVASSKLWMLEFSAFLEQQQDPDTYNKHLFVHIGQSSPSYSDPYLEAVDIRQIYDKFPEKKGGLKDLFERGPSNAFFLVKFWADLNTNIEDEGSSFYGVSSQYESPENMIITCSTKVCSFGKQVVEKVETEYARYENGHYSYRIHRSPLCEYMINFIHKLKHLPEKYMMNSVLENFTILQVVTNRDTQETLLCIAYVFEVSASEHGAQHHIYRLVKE

In this test the target is TEAD4 (UniProt Q15561). In words: co-IP; E1B-55K and TEAD4 co-transfected in H1299 cells; co-immunoprecipitation in either direction, detected by Western blot; the methods do not describe the co-IP. Background: A western blot detects proteins with antibodies after separation by electrophoresis.

Results are given in words; binding and its absence hold for the method and conditions named. Binding seen in cells or lysates may run through a third protein. Some entries that bind do so weakly or less than the wild type.

Consider “adenoviral E1B-55K protein (HAdV-C5) (from UniProt P03243 1-496)”, for which the binding result was “binds”.
